Reference: article PMC12973532
No constants are given. Whether binding was seen depends on the method and setting. Binding seen in cells or lysates may run through a third protein. A yes stands for co-enrichment or nearness to the bait. Other partners may have been found. Blank lines part the entries; values can stand above or below the molecule they belong to.

Sequences of proteins named here, by UniProt entry; tags and fusion partners are left off. Residues count along the entry.
UniProt O00264: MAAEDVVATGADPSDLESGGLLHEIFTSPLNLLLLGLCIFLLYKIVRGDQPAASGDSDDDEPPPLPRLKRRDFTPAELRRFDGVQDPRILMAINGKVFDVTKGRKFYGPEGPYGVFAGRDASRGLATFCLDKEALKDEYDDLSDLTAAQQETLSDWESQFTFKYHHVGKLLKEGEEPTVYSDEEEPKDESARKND
UniProt P61619: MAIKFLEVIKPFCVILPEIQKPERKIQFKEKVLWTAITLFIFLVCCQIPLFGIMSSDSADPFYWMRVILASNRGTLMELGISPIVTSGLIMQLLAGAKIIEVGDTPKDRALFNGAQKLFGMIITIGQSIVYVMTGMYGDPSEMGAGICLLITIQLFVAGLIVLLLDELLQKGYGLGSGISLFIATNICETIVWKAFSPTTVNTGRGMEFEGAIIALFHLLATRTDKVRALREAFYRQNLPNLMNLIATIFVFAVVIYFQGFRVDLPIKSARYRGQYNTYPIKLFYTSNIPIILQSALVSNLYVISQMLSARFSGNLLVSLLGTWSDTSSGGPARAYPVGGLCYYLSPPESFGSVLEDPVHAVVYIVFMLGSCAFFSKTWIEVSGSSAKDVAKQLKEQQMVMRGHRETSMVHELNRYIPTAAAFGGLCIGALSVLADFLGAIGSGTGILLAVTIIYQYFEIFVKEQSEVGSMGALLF
UniProt P33527: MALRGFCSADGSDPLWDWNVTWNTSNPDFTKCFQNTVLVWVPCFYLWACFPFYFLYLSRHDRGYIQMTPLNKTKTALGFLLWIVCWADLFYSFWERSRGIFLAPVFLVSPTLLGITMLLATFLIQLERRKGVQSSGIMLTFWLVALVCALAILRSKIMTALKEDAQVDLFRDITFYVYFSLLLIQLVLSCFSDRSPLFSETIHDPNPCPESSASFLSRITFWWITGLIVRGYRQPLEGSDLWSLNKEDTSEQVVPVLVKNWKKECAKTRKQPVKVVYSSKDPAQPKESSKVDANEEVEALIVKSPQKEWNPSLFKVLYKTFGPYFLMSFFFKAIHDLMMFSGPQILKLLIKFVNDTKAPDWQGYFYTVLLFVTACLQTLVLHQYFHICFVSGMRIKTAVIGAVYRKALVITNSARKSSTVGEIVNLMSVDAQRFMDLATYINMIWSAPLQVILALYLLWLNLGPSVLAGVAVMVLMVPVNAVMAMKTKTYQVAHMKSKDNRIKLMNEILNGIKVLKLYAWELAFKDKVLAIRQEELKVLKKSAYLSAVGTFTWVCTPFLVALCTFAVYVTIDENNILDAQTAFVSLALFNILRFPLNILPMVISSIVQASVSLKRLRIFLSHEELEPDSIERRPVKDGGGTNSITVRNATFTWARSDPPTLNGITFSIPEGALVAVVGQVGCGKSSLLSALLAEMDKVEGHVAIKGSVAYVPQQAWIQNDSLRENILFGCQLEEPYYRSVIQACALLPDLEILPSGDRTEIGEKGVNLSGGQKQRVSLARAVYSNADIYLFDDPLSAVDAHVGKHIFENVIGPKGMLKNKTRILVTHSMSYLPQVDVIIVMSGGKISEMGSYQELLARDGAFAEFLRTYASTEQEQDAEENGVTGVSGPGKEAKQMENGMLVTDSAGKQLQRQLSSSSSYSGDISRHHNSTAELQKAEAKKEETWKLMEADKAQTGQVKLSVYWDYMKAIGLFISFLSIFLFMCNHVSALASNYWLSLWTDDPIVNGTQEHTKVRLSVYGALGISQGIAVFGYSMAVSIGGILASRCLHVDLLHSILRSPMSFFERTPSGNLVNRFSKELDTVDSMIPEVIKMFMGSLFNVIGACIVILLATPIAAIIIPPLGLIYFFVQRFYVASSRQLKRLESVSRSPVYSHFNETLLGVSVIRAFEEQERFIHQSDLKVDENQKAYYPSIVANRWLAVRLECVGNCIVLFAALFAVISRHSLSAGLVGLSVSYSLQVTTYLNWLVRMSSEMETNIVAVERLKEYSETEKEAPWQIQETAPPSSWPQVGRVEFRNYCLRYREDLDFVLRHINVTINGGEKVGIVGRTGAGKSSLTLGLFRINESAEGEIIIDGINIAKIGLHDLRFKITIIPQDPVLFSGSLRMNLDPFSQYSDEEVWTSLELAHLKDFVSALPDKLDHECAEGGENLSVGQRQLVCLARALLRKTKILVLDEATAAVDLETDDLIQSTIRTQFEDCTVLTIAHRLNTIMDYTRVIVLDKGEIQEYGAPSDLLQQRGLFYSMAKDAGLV
UniProt Q8IXI2: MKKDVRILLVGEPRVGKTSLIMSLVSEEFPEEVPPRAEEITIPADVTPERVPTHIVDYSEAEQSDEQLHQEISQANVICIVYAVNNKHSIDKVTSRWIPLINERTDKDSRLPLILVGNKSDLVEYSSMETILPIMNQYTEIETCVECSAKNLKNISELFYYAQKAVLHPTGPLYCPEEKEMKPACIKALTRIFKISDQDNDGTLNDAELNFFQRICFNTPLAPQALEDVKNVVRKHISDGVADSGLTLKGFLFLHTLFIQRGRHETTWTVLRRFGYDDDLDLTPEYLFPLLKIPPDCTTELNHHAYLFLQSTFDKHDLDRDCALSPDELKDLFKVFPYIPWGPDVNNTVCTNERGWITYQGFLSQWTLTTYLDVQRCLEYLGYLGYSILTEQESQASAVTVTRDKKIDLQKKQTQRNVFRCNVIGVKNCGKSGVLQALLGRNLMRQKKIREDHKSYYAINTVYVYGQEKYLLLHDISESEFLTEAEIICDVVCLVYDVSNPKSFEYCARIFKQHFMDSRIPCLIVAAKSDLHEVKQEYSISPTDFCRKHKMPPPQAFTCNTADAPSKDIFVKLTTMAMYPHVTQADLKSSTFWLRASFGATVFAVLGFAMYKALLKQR
UniProt Q9UGP8: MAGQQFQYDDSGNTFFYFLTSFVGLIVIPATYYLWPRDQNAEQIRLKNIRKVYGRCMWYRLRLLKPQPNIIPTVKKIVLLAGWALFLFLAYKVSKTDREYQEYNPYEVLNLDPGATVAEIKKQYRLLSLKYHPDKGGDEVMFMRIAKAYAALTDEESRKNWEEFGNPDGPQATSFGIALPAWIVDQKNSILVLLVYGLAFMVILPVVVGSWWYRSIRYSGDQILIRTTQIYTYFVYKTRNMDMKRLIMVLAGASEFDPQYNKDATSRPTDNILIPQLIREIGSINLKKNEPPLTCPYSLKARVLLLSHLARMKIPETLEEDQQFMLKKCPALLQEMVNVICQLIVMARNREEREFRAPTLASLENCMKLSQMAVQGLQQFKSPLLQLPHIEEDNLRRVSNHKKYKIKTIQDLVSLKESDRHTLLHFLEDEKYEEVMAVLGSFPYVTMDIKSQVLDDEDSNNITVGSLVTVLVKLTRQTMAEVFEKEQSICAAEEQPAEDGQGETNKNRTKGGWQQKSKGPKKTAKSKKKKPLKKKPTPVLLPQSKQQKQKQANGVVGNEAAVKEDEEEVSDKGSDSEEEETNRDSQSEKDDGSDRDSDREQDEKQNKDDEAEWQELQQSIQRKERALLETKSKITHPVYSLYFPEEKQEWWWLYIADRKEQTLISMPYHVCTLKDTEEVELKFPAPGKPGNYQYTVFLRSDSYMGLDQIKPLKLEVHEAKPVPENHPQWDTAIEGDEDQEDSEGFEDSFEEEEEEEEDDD
UniProt O75027, residues 23-752: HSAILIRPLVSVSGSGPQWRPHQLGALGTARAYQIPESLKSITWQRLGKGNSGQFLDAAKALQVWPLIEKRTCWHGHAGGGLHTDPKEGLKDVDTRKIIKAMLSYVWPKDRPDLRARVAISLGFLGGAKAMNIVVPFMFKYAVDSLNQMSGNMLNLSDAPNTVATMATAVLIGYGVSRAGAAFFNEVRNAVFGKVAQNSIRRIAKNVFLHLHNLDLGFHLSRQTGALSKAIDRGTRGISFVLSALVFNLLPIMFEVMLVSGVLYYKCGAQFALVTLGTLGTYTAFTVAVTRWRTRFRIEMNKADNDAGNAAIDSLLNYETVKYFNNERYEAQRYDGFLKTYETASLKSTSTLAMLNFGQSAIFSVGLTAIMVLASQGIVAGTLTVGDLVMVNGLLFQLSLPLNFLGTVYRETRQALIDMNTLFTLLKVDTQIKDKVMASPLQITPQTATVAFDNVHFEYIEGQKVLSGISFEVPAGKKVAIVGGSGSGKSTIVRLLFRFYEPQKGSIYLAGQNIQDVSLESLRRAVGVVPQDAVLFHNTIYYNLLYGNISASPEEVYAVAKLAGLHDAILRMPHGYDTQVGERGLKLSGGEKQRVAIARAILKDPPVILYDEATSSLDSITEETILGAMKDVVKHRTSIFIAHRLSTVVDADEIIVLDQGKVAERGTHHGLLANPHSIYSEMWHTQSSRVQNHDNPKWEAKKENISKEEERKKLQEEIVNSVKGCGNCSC

Columns and labels:
[1] = molecular target: FLAG-tagged PGRMC1 (human progesterone receptor membrane component 1) (human) (UniProt O00264); assay: affinity purification with mass spectrometry; FLAG-PGRMC1 stably expressed in HEK293T cells as bait; isolated mitochondria lysed, affinity purification by FLAG; prey filtered with CRAPome, fold-change threshold 2; empty-vector cells as control
[2] = molecular target: FLAG-tagged PGRMC1 (human progesterone receptor membrane component 1) (human) (UniProt O00264); assay: affinity purification with mass spectrometry; FLAG-PGRMC1 stably expressed in HepG2 cells as bait; isolated mitochondria lysed, affinity purification by FLAG; prey filtered with CRAPome, fold-change threshold 1.5; empty-vector cells as control
[3] = molecular target: FLAG-tagged PGRMC1 (human progesterone receptor membrane component 1) (human) (UniProt O00264); assay: affinity purification with mass spectrometry; FLAG-PGRMC1 (human) stably expressed in murine MEL cells as bait; isolated mitochondria lysed, affinity purification by FLAG; prey filtered with CRAPome, fold-change threshold 1.5; empty-vector cells as control

binding [1]: binds
binding [2]: binds
Molecule: SEC61A1 (human) (from UniProt P61619 1-476)

binding [1]: binds
binding [2]: binds
Molecule: ABCC1 (human) (from UniProt P33527 1-1531)

binding [1]: binds
binding [2]: binds
Molecule: RHOT1 (human) (from UniProt Q8IXI2 1-618)

binding [1]: binds
binding [2]: binds
Molecule: SEC63 (human) (from UniProt Q9UGP8 1-760)

binding [1]: binds
binding [2]: binds
Molecule: ARL8B (human) (from UniProt Q9NVJ2 1-186)

binding [1]: binds
binding [2]: binds
Molecule: ABCB7 (human) (from UniProt O75027 23-752)

binding [3]: binds
B1: ferrochelatase (mouse) (enzyme, UniProt P22315 54-422)
chain: TTKPQAQPERRKPKTGILMLNMGGPETLGEVQDFLQRLFLDRDLMTLPIQNKLAPFIAKRRTPKIQEQYRRIGGGSPIKMWTSKQGEGMVKLLDELSPATAPHKYYIGFRYVHPLTEEAIEEMERDGLERAIAFTQYPQYSCSTTGSSLNAIYRYYNEVGQKPTMKWSTIDRWPTHPLLIQCFADHILKELNHFPEEKRSEVVILFSAHSLPMSVVNRGDPYPQEVGATVHKVMEKLGYPNPYRLVWQSKVGPVPWLGPQTDEAIKGLCERGRKNILLVPIAFTSDHIETLYELDIEYSQVLAQKCGAENIRRAESLNGNPLFSKALADLVHSHIQSNKLCSTQLSLNCPLCVNPVCRKTKSFFTSQQL

binding [1]: binds
binding [2]: binds
B2: CISD2 (human) (protein, UniProt Q8N5K1 1-135)
chain: MVLESVARIVKVQLPAYLKRLPVPESITGFARLTVSEWLRLLPFLGVLALLGYLAVRPFLPKKKQQKDSLINLKIQKENPKVVNEINIEDLCLTKAAYCRCWRSKTFPACDGSHNKHNELTGDNVGPLILKKKEV

binding [1]: binds
binding [2]: binds
B3: DDOST (human) (protein, UniProt P39656 43-456)
chain: SGPRTLVLLDNLNVRETHSLFFRSLKDRGFELTFKTADDPSLSLIKYGEFLYDNLIIFSPSVEDFGGNINVETISAFIDGGGSVLVAASSDIGDPLRELGSECGIEFDEEKTAVIDHHNYDISDLGQHTLIVADTENLLKAPTIVGKSSLNPILFRGVGMVADPDNPLVLDILTGSSTSYSFFPDKPITQYPHAVGKNTLLIAGLQARNNARVIFSGSLDFFSDSFFNSAVQKAAPGSQRYSQTGNYELAVALSRWVFKEEGVLRVGPVSHHRVGETAPPNAYTVTDLVEYSIVIQQLSNGKWVPFDGDDIQLEFVRIDPFVRTFLKKKGGKYSVQFKLPDVYGVFQFKVDYNRLGYTHLYSSTQVSVRPLQHTQYERFIPSAYPYYASAFSMMLGLFIFSIVFLHMKEKEKSD

binding [1]: binds
binding [2]: binds
B4: ABCB10 (human) (protein, UniProt Q9NRK6 106-738)
chain: AGPGAPRLPRARFPGGPAAAAWAGDEAWRRGPAAPPGDKGRLRPAAAGLPEARKLLGLAYPERRRLAAAVGFLTMSSVISMSAPFFLGKIIDVIYTNPTVDYSDNLTRLCLGLSAVFLCGAAANAIRVYLMQTSGQRIVNRLRTSLFSSILRQEVAFFDKTRTGELINRLSSDTALLGRSVTENLSDGLRAGAQASVGISMMFFVSPNLATFVLSVVPPVSIIAVIYGRYLRKLTKVTQDSLAQATQLAEERIGNVRTVRAFGKEMTEIEKYASKVDHVMQLARKEAFARAGFFGATGLSGNLIVLSVLYKGGLLMGSAHMTVGELSSFLMYAFWVGISIGGLSSFYSELMKGLGAGGRLWELLEREPKLPFNEGVILNEKSFQGALEFKNVHFAYPARPEVPIFQDFSLSIPSGSVTALVGPSGSGKSTVLSLLLRLYDPASGTISLDGHDIRQLNPVWLRSKIGTVSQEPILFSCSIAENIAYGADDPSSVTAEEIQRVAEVANAVAFIRNFPQGFNTVVGEKGVLLSGGQKQRIAIARALLKNPKILLLDEATSALDAENEYLVQEALDRLMDGRTVLVIAHRLSTIKNANMVAVLDQGKITEYGKHEELLSKPNGIYRKLMNKQSFISA

binding [3]: binds
B5: ABCD3 (mouse) (protein, UniProt P55096 1-659)
chain: MAAFSKYLTARNTSLAGAAFLLLCLLHKRRRALGLHGKKSGKPPLQNNEKEGKKERAVVDKVFLSRLSQILKIMVPRTFCKETGYLLLIAVMLVSRTYCDVWMIQNGTLIESGIIGRSSKDFKRYLFNFIAAMPLISLVNNFLKYGLNELKLCFRVRLTRYLYEEYLQAFTYYKMGNLDNRIANPDQLLTQDVEKFCNSVVDLYSNLSKPFLDIVLYIFKLTSAIGAQGPASMMAYLLVSGLFLTRLRRPIGKMTIMEQKYEGEYRYVNSRLITNSEEIAFYNGNKREKQTIHSVFRKLVEHLHNFIFFRFSMGFIDSIIAKYVATVVGYLVVSRPFLDLAHPRHLHSTHSELLEDYYQSGRMLLRMSQALGRIVLAGREMTRLAGFTARITELMQVLKDLNHGRYERTMVSQQEKGIEGAQASPLVPGAGEIINTDNIIKFDHVPLATPNGDILIQDLSFEVRSGANVLICGPNGCGKSSLFRVLGELWPLFGGRLTKPERGKLFYVPQRPYMTLGTLRDQVIYPDGKEDQKKRGISDQVLKEYLDNVQLGHILEREGGWDSVQDWMDVLSGGEKQRMAMARLFYHKPQFAILDECTSAVSVDVEDYIYSHCRKVGITLFTVSHRKSLWKHHEYYLHMDGRGNYEFKKITEDTVEFGS

binding [3]: binds
B6: ARL8B (mouse) (protein, UniProt Q9CQW2 1-186)
chain: MLALISRLLDWFRSLFWKEEMELTLVGLQYSGKTTFVNVIASGQFSEDMIPTVGFNMRKVTKGNVTIKIWDIGGQPRFRSMWERYCRGVNAIVYMIDAADREKIEASRNELHNLLDKPQLQGIPVLVLGNKRDLPNALDEKQLIEKMNLSAIQDREICCYSISCKEKDNIDITLQWLIQHSKSRRS

binding [3]: binds
B7: BDH1 (mouse) (protein, UniProt Q80XN0 47-343)
chain: ASQADAASGKAILITGCDSGFGFSLAKHLHSKGFLVFAGCLMKDKGDAGVKELDSLKSDRLRTIQLNVCNSEEVEKAVETIRSGLKDPEKGMWGLVNNAGISTFGEVEFTSMETYKEVAEVNLWGTVRTTKSFLPLLRRAKGRVVNISSMLGRMANPARSPYCITKFGIEAFSDCLRYEMHPLGVKVSVVEPGNFIAATSLYSPERIQAIAKKMWDDLPEVVRKDYGRKYFDEKIAKMETYCNSGSTDTSSVINAVTHALTAATPYTRYHPMDYYWWLRMQIMTHFPGAISDKIYIH

binding [3]: binds
B8: TMEM214 (mouse) (protein, UniProt Q8BM55 1-687)
chain: MAARSAGSGGWEVVKRGRRPGASSGGRGGGGGSDRRALGEANGVLKYDLSSPIQTTSTLYERGFEKIMKRQNKEQVPPPAAESKKPINKKQPKKVTAVPSQNQKQGPFRRLEDALKALDVAALQKELDKSQSVFTGNPSVWLKDLASYLNYKLQTPRMEPTLSQYPHDYPYSLVSRELRGIIRGLLTKAAGSVELFFDHCLFTMLQELDKTPGESLHGYRICIQAVLQDKPKIVTSNLDKFLELLRSHQSRPAKCLTIMWALGQAGFTNLTEGLKVWLGIMLPVLGIKALSPFAIAYLDRLLLMHPNLTKGFGMIGPKDFFPLLDFAYMPNNSLSPSLQEQLCQLFPRLKVLAFGAKPESSLHTYFPSFLSRATPSCPAAMKKELLASLTQCLTVDPLSTSVWRQLYPKHLSQSSLLLEHLLKSWEHIPKKARKSLQETIQSLKVTNQELLKKGSGGSEHVLTCDTACKGLLQRARGPRPPWARLFLLLLVFAVGFLCHDLRSNSSLQASLTGRLLRSSGLLPVGQQVCARLSSYSLQSYNWLQETLPACGSHLLAVVQPSLQLAWTHIYAIFSFLSAHCASYLACFSDSLAGFFQRVQLPEALQQLFHALKELLLLFCHSVLLPTWHLLLAALAQVQEHCHEACRGDVTWDCIKTQLSRAAQWTWLCLQDVTVAFLDWALTMISQQ

binding [1]: binds
binding [2]: binds
B9: ACSL1 (human) (protein, UniProt P33121 1-698)
chain: MQAHELFRYFRMPELVDFRQYVRTLPTNTLMGFGAFAALTTFWYATRPKPLKPPCDLSMQSVEVAGSGGARRSALLDSDEPLVYFYDDVTTLYEGFQRGIQVSNNGPCLGSRKPDQPYEWLSYKQVAELSECIGSALIQKGFKTAPDQFIGIFAQNRPEWVIIEQGCFAYSMVIVPLYDTLGNEAITYIVNKAELSLVFVDKPEKAKLLLEGVENKLIPGLKIIVVMDAYGSELVERGQRCGVEVTSMKAMEDLGRANRRKPKPPAPEDLAVICFTSGTTGNPKGAMVTHRNIVSDCSAFVKATENTVNPCPDDTLISFLPLAHMFERVVECVMLCHGAKIGFFQGDIRLLMDDLKVLQPTVFPVVPRLLNRMFDRIFGQANTTLKRWLLDFASKRKEAELRSGIIRNNSLWDRLIFHKVQSSLGGRVRLMVTGAAPVSATVLTFLRAALGCQFYEGYGQTECTAGCCLTMPGDWTAGHVGAPMPCNLIKLVDVEEMNYMAAEGEGEVCVKGPNVFQGYLKDPAKTAEALDKDGWLHTGDIGKWLPNGTLKIIDRKKHIFKLAQGEYIAPEKIENIYMRSEPVAQVFVHGESLQAFLIAIVVPDVETLCSWAQKRGFEGSFEELCRNKDVKKAILEDMVRLGKDSGLKPFEQVKGITLHPELFSIDNGLLTPTMKAKRPELRNYFRSQIDDLYSTIKV

binding [3]: binds
B10: RPN1 (mouse) (protein, UniProt Q91YQ5 26-608)
chain: SSEAPPLVNEDVKRTVDLSSHLAKVTAEVVLVHPGGGSTSRASSFVLALEPELESRLAHLGVQIKGEDEEDNNLEVRETKIKGKSGRFFTVKLPVALDPGSKISVVVETVYTHVLHPYPTQITQSEKQFVVFEGNHYFYSPYPTKTQTMRVKLASRNVESYTKLGNPSRSEDVLDYGPFKDIPAYSQDTFKVHYENNSPFLTITSMTRVIEVSHWGNIAVEENVDLKHTGAVLKGPFSRYDYQRQPDSGISSIRSFKTILPAAAQDVYYRDEIGNVSTSHLLILDDSVEMEIRPRFPLFGGWKTHYIVGYNLPSYEYLYNLGDQYALKMRFVDHVFDEQVIDSLTVKIILPEGAKNIQVDSPYDISRAPDELHYTYLDTFGRPVIVAYKKNLVEQHIQDIVVHYTFNKVLMLQEPLLVVAAFYILFFTVIIYVRLDFSITKDPAAEARMKVACITEQVLTLVNKRLGLYRHFDETVNRYKQSRDISTLNSGKKSLETEHKAVTSEIAVLQSRLKTEGSDLCDRVSEMQKLDAQVKELVLKSAVEAERLVAGKLKKDTYLENEKLSSGKRQELVTKIDHILDAL

binding [1]: binds
binding [2]: binds
B11: SLC25A11 (human) (protein, UniProt Q02978 1-314)
chain: MAATASAGAGGIDGKPRTSPKSVKFLFGGLAGMGATVFVQPLDLVKNRMQLSGEGAKTREYKTSFHALTSILKAEGLRGIYTGLSAGLLRQATYTTTRLGIYTVLFERLTGADGTPPGFLLKAVIGMTAGATGAFVGTPAEVALIRMTADGRLPADQRRGYKNVFNALIRITREEGVLTLWRGCIPTMARAVVVNAAQLASYSQSKQFLLDSGYFSDNILCHFCASMISGLVTTAASMPVDIAKTRIQNMRMIDGKPEYKNGLDVLFKVVRYEGFFSLWKGFTPYYARLGPHTVLTFIFLEQMNKAYKRLFLSG
